From article PMC9234671, “Molecular determinants of αVβ5 localization in flat clathrin lattices – role of αVβ5 in cell adhesion and proliferation” (Journal of Cell Science, 2022) come the findings set out here.

Sequences of proteins named here, by UniProt entry; tags and fusion partners are left off.
UniProt P26039: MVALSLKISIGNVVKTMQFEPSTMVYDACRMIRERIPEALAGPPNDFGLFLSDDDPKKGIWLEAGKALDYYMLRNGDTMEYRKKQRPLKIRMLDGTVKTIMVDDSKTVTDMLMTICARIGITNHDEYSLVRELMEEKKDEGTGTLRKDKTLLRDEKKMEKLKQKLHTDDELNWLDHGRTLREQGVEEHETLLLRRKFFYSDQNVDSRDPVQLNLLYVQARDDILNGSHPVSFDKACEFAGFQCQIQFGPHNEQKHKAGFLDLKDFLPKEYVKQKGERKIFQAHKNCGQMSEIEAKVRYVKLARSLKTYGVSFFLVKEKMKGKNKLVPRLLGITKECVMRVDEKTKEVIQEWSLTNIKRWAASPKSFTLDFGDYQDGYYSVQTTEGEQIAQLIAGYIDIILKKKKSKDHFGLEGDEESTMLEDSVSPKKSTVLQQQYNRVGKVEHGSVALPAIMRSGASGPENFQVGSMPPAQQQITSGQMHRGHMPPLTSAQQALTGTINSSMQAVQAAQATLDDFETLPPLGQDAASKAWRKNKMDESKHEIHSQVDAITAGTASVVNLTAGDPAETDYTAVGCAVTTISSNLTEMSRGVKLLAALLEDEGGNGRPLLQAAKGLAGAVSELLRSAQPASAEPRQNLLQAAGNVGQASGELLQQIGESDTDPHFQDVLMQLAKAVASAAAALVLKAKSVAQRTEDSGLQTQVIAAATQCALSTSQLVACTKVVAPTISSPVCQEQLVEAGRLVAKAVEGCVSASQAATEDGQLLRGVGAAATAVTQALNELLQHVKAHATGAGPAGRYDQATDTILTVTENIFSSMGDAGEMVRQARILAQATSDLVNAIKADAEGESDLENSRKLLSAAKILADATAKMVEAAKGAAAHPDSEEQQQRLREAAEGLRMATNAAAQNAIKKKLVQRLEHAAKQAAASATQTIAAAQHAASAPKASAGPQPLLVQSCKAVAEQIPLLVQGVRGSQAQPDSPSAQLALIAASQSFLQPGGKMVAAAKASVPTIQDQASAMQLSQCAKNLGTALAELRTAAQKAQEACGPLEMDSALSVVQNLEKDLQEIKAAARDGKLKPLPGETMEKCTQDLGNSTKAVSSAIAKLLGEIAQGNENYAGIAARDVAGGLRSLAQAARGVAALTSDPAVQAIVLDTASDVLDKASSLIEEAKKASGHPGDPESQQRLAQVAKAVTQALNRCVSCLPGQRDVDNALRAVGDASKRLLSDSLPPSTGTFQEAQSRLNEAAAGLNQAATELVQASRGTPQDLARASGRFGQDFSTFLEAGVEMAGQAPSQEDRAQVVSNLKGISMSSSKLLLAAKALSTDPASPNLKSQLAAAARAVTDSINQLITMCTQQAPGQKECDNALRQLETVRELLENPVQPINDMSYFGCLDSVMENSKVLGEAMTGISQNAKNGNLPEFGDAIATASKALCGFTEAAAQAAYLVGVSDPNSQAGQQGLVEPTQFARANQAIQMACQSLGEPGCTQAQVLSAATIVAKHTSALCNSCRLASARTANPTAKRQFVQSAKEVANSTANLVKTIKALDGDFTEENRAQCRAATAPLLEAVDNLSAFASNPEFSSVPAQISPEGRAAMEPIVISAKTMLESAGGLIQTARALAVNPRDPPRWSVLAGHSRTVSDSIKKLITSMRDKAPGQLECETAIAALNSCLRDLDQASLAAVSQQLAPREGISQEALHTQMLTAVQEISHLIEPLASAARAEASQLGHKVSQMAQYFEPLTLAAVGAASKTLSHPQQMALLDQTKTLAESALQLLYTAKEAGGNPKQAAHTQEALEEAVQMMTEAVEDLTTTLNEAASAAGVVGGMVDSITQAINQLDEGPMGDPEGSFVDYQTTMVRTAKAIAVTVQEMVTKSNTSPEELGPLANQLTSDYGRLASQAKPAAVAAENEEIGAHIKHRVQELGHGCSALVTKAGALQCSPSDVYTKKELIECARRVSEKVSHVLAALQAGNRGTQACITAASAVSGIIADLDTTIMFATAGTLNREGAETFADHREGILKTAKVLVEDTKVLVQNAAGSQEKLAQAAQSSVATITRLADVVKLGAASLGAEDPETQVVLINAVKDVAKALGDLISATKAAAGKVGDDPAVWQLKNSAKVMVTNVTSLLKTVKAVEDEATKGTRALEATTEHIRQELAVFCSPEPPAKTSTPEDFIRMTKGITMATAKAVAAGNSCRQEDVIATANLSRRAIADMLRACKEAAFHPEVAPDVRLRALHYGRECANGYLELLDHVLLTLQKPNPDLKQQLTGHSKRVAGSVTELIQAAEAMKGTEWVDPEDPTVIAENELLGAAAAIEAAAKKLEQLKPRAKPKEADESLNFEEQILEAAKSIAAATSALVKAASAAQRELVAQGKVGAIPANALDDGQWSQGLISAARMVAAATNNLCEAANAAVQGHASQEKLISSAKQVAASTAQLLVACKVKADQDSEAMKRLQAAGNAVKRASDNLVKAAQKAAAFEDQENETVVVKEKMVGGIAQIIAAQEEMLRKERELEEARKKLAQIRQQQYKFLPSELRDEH
UniProt Q7KZI7: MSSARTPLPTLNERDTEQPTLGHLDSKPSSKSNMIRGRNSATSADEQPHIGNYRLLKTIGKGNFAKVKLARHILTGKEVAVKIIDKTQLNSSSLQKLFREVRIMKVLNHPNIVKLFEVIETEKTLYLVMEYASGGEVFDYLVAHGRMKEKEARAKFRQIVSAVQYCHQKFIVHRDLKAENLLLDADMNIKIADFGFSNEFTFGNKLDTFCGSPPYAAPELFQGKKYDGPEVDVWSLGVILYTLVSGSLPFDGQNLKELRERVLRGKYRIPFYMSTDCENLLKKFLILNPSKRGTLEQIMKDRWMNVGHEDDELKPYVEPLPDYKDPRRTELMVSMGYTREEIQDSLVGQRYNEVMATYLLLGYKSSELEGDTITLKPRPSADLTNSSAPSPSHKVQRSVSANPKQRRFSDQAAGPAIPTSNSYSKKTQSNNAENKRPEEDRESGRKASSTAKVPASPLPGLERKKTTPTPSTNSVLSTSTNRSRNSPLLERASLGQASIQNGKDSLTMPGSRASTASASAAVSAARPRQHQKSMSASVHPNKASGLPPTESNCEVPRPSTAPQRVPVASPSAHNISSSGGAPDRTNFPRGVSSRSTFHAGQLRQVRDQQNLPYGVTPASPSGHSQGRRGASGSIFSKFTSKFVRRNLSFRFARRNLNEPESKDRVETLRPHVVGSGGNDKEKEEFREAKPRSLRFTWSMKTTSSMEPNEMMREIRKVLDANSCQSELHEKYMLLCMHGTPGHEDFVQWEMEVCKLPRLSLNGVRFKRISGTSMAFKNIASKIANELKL
UniProt Q9QZS3: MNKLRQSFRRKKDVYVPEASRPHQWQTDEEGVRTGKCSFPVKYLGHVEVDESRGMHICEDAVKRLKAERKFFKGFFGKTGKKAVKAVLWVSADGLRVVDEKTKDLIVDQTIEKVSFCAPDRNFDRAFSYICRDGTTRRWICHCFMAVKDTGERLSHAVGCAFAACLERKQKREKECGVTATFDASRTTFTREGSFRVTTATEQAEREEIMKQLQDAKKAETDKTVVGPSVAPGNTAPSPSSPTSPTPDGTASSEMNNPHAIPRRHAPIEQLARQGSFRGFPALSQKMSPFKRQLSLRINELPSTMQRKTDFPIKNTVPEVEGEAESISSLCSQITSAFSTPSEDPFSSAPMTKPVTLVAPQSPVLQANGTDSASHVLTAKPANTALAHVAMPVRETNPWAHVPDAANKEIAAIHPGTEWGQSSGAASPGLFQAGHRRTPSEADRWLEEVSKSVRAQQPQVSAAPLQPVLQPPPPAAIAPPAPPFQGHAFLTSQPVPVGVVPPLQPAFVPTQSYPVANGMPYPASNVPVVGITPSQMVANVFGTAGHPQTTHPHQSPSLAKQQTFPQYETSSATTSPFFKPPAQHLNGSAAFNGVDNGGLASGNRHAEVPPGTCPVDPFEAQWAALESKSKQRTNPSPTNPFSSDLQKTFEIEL

The target of experiment [1] is mouse β1 wild-type cytoplasmic tail peptide (mouse). Description: pull-down; desthiobiotin tail peptides coupled to Dynabeads MyOne streptavidin C1, incubated with RAC-11P cell lysates (M-PER) at 4°C for 4 h, western blot; only the target purified.
In experiment [2] the target is integrin β5 (endogenous, keratinocytes) (human (endogenous in PA-JEB/β4 and HaCaT keratinocytes)) (UniProt P18084). Description: co-IP; immunoprecipitation of endogenous β5 (normal rabbit serum and β6 as controls), western blot.
The target in experiment [3] is integrin β5-S759/762A (UniProt P18084). Put plainly: co-IP; immunoprecipitation of wild-type or mutant β5 (SE, SA) expressed in β5-deficient keratinocytes, western blot.
In experiment [4] the target is integrin β5-S759/762E (UniProt P18084). Described as above.
Experiment [5] addresses wild-type integrin β5 expressed in β5-deficient PA-JEB/β4 keratinocytes (UniProt P18084). The experiment is described as above.
In experiment [6] the target is T1, mouse β5 wild-type tail peptide (mouse).
T1 sequence (peptide, desthiobiotin on the N-terminus; C-terminal -OH): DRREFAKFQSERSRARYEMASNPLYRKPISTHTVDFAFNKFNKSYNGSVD
Put plainly: pull-down; desthiobiotin tail peptides coupled to Dynabeads MyOne streptavidin C1, incubated with RAC-11P cell lysates (M-PER) at 4°C for 4 h, western blot; only the target purified.

Experiment [7] deals with T2, mouse β3 wild-type tail peptide (mouse).
T2 sequence (peptide, desthiobiotin on the N-terminus; C-terminal -OH): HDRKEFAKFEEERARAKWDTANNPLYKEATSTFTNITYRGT
Described as above.

Experiment [8] concerns the target T1, mouse β5 wild-type tail peptide (mouse). Described as above. This is another data set of the same source.
Experiment [9] deals with mouse β1 wild-type cytoplasmic tail peptide (mouse). The description is as above. This is another data set of the same source.
Experiment [10] addresses T2, mouse β3 wild-type tail peptide (mouse). Described as above. The source holds these as a separate data set.

Where two headings read alike, the source gives them in different places. These are yes or no findings as the source states them, for the method shown. Binding seen in cells or lysates may run through a third protein. Some entries that bind do so weakly or less than the wild type.

With “talin (RAC-11P cell lysate) (from UniProt P26039 1-2541)”, in experiment [1], the binding entry was “binds”.
In the case of “microtubule affinity-regulating kinase 2 (MARK2) (from UniProt Q7KZI7 1-788) (enzyme)”, the binding result in experiment [2], in experiment [3], in [4] and in experiment [5] was “binds” in each case.
For the molecule “Numb (RAC-11P cell lysate) (from UniProt Q9QZS3 1-653)”, the binding entry is listed as “binds” in experiment [6], “no binding” in experiment [1] and “no binding” in experiment [7].

B1: ARH (RAC-11P cell lysate) (protein, UniProt Q8C142 1-308)
chain: MDALKSAGRALIRSPSLAKQSWAGGRHRKLPENWTDTRETLLEGMVFSLKYLGMTLVERPKGEELSAAAVKRIVATAKASGKKLQKVTLKVSPRGIILTDSLTSQLIENVSIYRISYCTADKMHDKVFAYIAQSQQNESLECHAFLCTKRKVAQAVTLTVAQAFKVAFEFWQVSKEEKEKREKANQEGGDVPGTRRDSTPSLKTLVATGNLLDLEEVAKAPLSTVSANTNNVDETPRPQVLGNNSVVWELDDGLDEAFSRLAQSRTNPQVLDTGLSAQDIHYAQCLSPTDWDKPDSSGIDQDDDVFTF
For B1, the binding entry in experiment [8] was “binds”; in experiment [9], “no binding”; in [10] it was “no binding”.

B2: SNX17 (RAC-11P cell lysate) (protein, UniProt Q8BVL3 1-470)
chain: MHFSIPETESRSGDSGGSAYVAYNIHVNGVLHCRVRYSQLLGLHEQLRKEYGANVVPAFPPKKLFSLTPAEVEQRREQLEKYMQAVRQDPLLGSSETFNSFLRRAQQETQQVPTEEVSLEVLLSNGQKVLVTVLTSDQTEDVLEAVAAKLDLPDDLIGYFSLFLVREKEDGAFSFVRKLQEFELPYVSVTSLRSQEYKIVLRKSYWDSAYDDDVMENRVGLNLLYAQTVSDIEHGWILVTKEQHRQLKSLQEKVSKKEFLRLAQTLRHYGYLRFDACVADFPEKDCPVVVSAGNSELSLQLRLPGQQLREGSFRVTRMRCWRVTSSVPLPSGGTSSPSRGRGEVRLELAFEYLMSKDRLQWVTITSPQAIMMSICLQSMVDELMVKKSGGSIRKMLRRRVGGTLRRSDSQQAVKSPPLLESPDASRESMVKLSSKLSAVSLRGIGSPSTDASASAVHGNFAFEGIGDEDL
For B2, the binding entry in experiment [8] and in experiment [10] was “binds” each time.

B3: kindlin-2 (RAC-11P cell lysate) (protein, UniProt Q8CIB5 1-680)
chain: MALDGIRMPDGCYADGTWELSVHVTDLNRDVTLRVTGEVHIGGVMLKLVEKLDVKKDWSDHALWWEKKRTWLLKTHWTLDKCGIQADAKLQFTPQHKLLRLQLPNMKYVKVKVNFSDRVFKAVSDICKTFNIRHPEELSLLKKPRDPTKKKKKKLDDQSEDEALELEGPLIMPGSGSIYSSPGLYSKTMTPTYDAHDGSPLSPTSAWFGDSALSEGNPGILAVSQPVTSPEILAKMFKPQALLDKAKTNQGWLDSSRSLMEQDVKENEALLLRFKYYSFFDLNPKYDAIRINQLYEQAKWALLLEEIECTEEEMMMFAALQYHINKLSIMTSENHLNNSDKEVDEVDAALSDLEITLEGGKTSTILGDITSIPELADYIKVFKPKKLTLKGYKQYWCTFKDTSISCYKSREESSGTPAHQLNLRGCEVTPDVNISGQKFNIKLLIPVAEGMNEIWLRCDNEKQYAHWMAACRLASKGKTMADSSYNLEVQNILSFLKMQHLNPDPQLIPDQITTDVNPECLVSPRYLKKYKSKQITARILEAHQNVAQMSLIEAKMRFIQAWQSLPEFGITHFIARFQGGKREELIGIAYNRLIRMDASTGDAIKTWRFSNMKQWNVNWEIKMVTVEFADEVRLSFICTEVDCKVVHEFIGGYIFLSTRAKDQNESLDEEMFYKLTSGWV
For the molecule B3, the binding result in [8] is on record as “no binding”; in [9], “binds”.

B4: kindlin-1 (RAC-11P cell lysate) (protein, UniProt P59113 1-677)
chain: MLSSGDLTSASWELVVRVDHANGEQQTEITLRVSGDLHIGGVMLKLVEQMNIAQDWSDYALWWEQKRCWLLKTHWTLDKCGVQADANLLFTPQHKMLRLRLPNAKTVRLRVSFSAVVFKAVADICKVLNIRRPEELSLLKPSSDYCKKKKKKEKNSKEPVIEDILNLESSSTSSGSPVSPGLYSKTMTPTYDPINGTPALSTMTWFGDSPLTEQNCSVLAFSQPPPSPDVLADMFQPRSLVDKAKMNAGWLDSSRSLMEQSIQEDEQLQLRFKYYTFFDLNPKYDAVRINQLYEQARWAVLLEEIDCTEEEMLIFAALQYHISKLSQCAEIQDFATKSEVDEVEAALSSLEVTLEGGKADNTLEDITDIPKLADYLKLFRPKKLMLKACKQYWFVFKDTSIAYFKNKELEQGEPIEKLNLRGCEIVPDVNVSGRKFGIKLLIPVADGMNEVYLRCDHEDQYARWMAACILASKGKTMADSSYQPEVISILSFLKMKNRNSSPLVASSLENMDMNPECLVSPCCAKKHKSKQLAARILEAHHNVAQMPLVEAKLQFIQAWQSLPEFGLTYYLVRFKGSKKDDILGVAYNRLIRIDAVTGIPVTTWRFANMKQWNVNWEIRQVAIEFDQNVSIAFTCLSADCKIVHEYIGGYIFLSTRSKDQNETLDEDLFHKLTGGQD
Consider B4, for which the binding result is “no binding” in experiment [8] and “binds” in [9].

B5: KANK-2 (RAC-11P cell lysate) (protein, UniProt Q8BX02 1-843)
chain: MAQVLHVPAPFPGTPGQASPAAFPSKEPDPPYSVETPYGYRLDLDFLKYVDDIEKGHTLRRVAVQRRPRLGSLPRGPGSWWTSTESLCSDASGDSRHSAYSYCGRGFYPQYGALETRIGSNPRVERTLLDARRRLEDQAAAPSSGGLGSLTPSAAGSTSSLAGVGLLPPTPRSSGLSTPVAPSAGHLAHVREQMAGALRKLRQLEEQVKLIPVLQVKLSVLQEEKRQLTVQLKSQKFLGHPSGTRSRSELCLDLPEAPDDPAALETRSVGTWVRERDLGIPDGEAALVAKVAVLETQLKKALQELRAAQTQQVDLQPQAWPPPDTQVRVDTVRVVEGPREVEVAASTAAGALAQRAQSLEPYGTGLKALTTSGGPENTLVFRSHEVVETMCPLPTATTGNVHTAKKISITERSCTGAPRMTEPSSVNPRPAAASVVQPENPVPAAQDTTDKKPTRPAAASQDSQAADGAGRASLATKRKEDPADPEVNQRNLQFVGVNGGYESPSEDSSTAENSEHESTENEGPEPPARVLSPAECPQLRPPGAAVATTSLEGPQLSQESQRVPAPEVASGPDPEEEIRMDLSPDLISACLALEKYLENPNALTERELKVAYTTVLQEWLRLACRSDAHPELVRRHLVTFRAMSARLLDYVVNIADSNGNTALHYSVSHANFPVVRQLLDSGVCHVDKLNRAGYSPIMLTALATLKTQDDIETILQLFRLGNVNAKASQAGQTALMLAVSHGRVDVVRALLACEADVNIQDEDGSTALMCACEHGHKEITGLLLAVPSCDISLTDRDGSTALMVALDAGQSEIASMLYSRMNIKCSFAPMSDYESPASSSAEE
For the molecule B5, the binding result in [9] is “binds”.
